# Reference: patent publication US11579088B2, “Device and method for imaging shortwave infrared fluorescence” (Massachusetts Institute of Technology, priority 2016, dated 2023)
# Tested on: brain vasculature
# Experiment: Noninvasive brain vasculature imaging through intact skin and skull (NIR vs SWIR)
# Format: in vivo, mouse
# Settings: for apparent vessel width (full width at half maximum of two-Gaussian fit): ICG 0.2 mg/kg; for image contrast (coefficient of variation: standard deviation of pixel intensity normalized to mean): 808 nm excitation
smiles,measurement,setting,value
"CC1(C)C(/C=C/C=C/C=C/C=C2\N(CCCCS(=O)(=O)O)c3ccc4ccccc4c3C2(C)C)=[N+](CCCCS(=O)(=O)[O-])c2ccc3ccccc3c21 [ICG, indocyanine green]",SWIR image contrast greater than NIR image contrast,"ICG 0.2 mg/kg tail vein, SWIR vs NIR",~50%
same,apparent vessel width (full width at half maximum of two-Gaussian fit),"NIR image, silicon camera",430 μm
same,image contrast (coefficient of variation: standard deviation of pixel intensity normalized to mean),"NIR image, silicon camera, ICG 0.2 mg/kg tail vein",0.20
same,apparent vessel width (full width at half maximum of two-Gaussian fit),"SWIR image, InGaAs camera 1300-1620 nm",210 μm
same,image contrast (coefficient of variation: standard deviation of pixel intensity normalized to mean),"SWIR image, InGaAs camera 1300-1620 nm, ICG 0.2 mg/kg tail vein",0.29
